Measurements published in patent publication US11026423B2, “Herbicidal compositions and methods” (SePRO Corporation, priority 2013, dated 2021).
Some of these results come from one statement about several compounds together.

Test system: hairy fleabane
Test: Example 6 Shafter almond orchard: hairy fleabane control
Assay type: in vivo, Conyza bonariensis
Settings: 180 DAT, 0.4 and 0.8 lb fluridone/ac, flumioxazin
Method: Field trials were conducted in California to determine sweet almond (Prunus dulcis) tolerance to fluridone and efficacy of fluridone in an irrigated orchard environment. Trial locations included a two-year old almond stand in Kerman, Calif. and a six-year old stand in Shafter, Calif. The soil in both locations is classified as a sandy loam. Applications prior to emergence of weeds (PRE) of herbicides were made in the month of January in Kerman and in the month of January in Shafter. […] Rainfall (0.32 in (about 0.813 cm)) and irrigation (1.5 in (about 3.81 cm)) one day after PRE applications were used to incorporate herbicides into the soil at the Kerman and Shafter locations, respectively. Both sites were irrigated as needed during the growing season to avoid drought conditions. Visual evaluations of crop injury and weed control were made monthly on a 0 to 100% scale. Postemergent (POST) broadcast applications of a non-selective, contact herbicide was broadcast across all treatments in Kerman prior to the 90 days after treatment and 119 days after treatment (DAT) ratings. Thus, data from those ratings dates was not evaluated. No POST applications were made in Shafter.

Structure (SMILES): C#CCN1C(=O)COc2cc(F)c(N3C(=O)C4=C(CCCC4)C3=O)cc21 [flumioxazin, 2-[7-fluoro-3,4-dihydro-3-oxo-4-(2-propynyl)-2H-1,4-benzoxazin-6-yl]-4,5,6,7-tetrahydro-1H-isoindole-1,3(2H)-dione]
- hairy fleabane control: 94-100%
